Publication PMC8863983
Results are given in words; binding and its absence hold for the method and conditions named. In cells and extracts the contact can be indirect. Some binding calls cover weakened binding; strength is not graded here. For some assays here: Where a sequence is shown, tags or fusion partners need not be part of it.

Sequences of proteins named here, by UniProt entry; tags and fusion partners are left off.
UniProt O43791: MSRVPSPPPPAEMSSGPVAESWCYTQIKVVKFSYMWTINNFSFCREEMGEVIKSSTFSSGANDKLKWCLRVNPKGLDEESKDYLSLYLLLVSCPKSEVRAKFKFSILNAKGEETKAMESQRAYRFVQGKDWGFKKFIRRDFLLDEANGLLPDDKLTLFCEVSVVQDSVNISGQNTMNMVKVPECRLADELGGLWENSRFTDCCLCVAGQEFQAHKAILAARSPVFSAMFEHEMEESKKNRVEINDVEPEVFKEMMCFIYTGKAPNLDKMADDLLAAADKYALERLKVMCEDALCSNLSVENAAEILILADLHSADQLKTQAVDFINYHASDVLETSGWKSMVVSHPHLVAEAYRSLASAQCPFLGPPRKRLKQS

Tests used:
[1] = molecular target: T1, Myc-DRAK1 (death-associated protein kinase-related apoptosis-inducing kinase 1) (UniProt Q9UEE5); assay: co-IP; 293T cells transfected with Myc-DRAK1, HA-CUL3 and Flag-SPOP; lysed after 36 h in IP buffer (50 mM Tris pH 7.4, 150 mM NaCl, 1% Triton X-100, 0.5% sodium deoxycholate, 2 mM EDTA, 10% glycerol); antibody overnight at 4 °C, Dynabeads; immunoblot
T1 sequence: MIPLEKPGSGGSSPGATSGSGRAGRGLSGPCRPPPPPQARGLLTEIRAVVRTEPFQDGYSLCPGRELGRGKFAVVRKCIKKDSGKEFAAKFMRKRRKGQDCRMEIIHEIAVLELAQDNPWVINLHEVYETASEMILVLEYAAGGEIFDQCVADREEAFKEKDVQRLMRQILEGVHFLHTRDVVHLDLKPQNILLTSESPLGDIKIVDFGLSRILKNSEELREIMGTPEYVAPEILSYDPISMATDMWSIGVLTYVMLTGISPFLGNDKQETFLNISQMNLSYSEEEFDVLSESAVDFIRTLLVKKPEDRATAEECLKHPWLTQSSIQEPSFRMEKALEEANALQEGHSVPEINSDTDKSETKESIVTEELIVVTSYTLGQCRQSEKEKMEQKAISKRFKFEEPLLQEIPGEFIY

[2] = molecular target: T2, endogenous DRAK1 (human (endogenous in HeLa)) (UniProt Q9UEE5); assay: co-IP; endogenous proteins in HeLa and paclitaxel-resistant HeLa/PTX cell lysates; IP buffer, antibody overnight at 4 °C, Dynabeads; immunoblot
T2 sequence: T1 sequence

Substance | binding [1] | binding [2]
Flag-SPOP (speckle-type POZ protein) (from UniProt O43791 1-374) | binds | –
endogenous SPOP (from UniProt O43791 1-374) | – | binds
